From article PMC8996536
Results are given in words; binding and its absence hold for the method and conditions named. Binding seen in cells or lysates may run through a third protein. Some entries that bind do so weakly or less than the wild type.

By UniProt entry, the sequences of proteins in these tests, tags left out.
UniProt P67809: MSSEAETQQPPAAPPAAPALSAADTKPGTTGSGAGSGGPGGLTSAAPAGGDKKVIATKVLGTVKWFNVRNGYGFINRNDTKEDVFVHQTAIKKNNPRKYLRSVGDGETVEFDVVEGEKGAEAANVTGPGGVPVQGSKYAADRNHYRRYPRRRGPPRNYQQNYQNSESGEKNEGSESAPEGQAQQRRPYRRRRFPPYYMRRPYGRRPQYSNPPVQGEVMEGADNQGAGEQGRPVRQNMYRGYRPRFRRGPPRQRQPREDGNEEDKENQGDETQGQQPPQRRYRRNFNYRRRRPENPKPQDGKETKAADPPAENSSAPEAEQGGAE

Target: T1, SET domain containing 3 (human (endogenous in A549)) (UniProt Q86TU7)
T1 sequence: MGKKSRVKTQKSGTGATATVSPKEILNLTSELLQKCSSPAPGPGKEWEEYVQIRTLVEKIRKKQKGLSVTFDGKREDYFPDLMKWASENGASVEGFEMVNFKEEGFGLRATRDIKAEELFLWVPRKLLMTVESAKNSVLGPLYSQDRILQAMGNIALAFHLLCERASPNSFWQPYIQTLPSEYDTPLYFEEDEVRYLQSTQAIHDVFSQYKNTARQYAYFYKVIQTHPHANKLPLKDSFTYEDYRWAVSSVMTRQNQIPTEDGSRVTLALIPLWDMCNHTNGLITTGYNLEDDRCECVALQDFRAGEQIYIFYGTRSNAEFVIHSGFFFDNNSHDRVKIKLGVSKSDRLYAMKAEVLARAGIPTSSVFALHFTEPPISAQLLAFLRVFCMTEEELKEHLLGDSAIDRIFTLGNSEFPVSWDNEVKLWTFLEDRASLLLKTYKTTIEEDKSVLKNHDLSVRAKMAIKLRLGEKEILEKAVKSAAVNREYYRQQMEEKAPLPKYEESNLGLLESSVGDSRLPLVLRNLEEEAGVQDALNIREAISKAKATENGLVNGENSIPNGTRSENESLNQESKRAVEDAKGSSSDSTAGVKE
Experiment: co-IP; cell lysates incubated with Dynabeads Protein G conjugated with SETD3 antibody at 4 °C overnight; washed four times with lysis buffer; SDS-PAGE and western blot; in the presence of wild-type or K264A mutant YBX1

wild-type YBX1 protein (from UniProt P67809 1-324)
binding: binds
